Laboratory results: PubChem BioAssay AID1224828 (NIAID, 2016)

Screen: 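Regulators linking TLR4 signalling to p65 nuclear translocation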 (primary screen)
System: mouse RAW264.7 G9 macrophage reporter cells (GFP-p65, Tnf promoter-mCherry)
Reagent: siRNA pool against mouse genes, 100 nM
Time to read-out: 2 days siRNA transfection, then 40 min LPS before fixation
Treatment: LPS (Salmonella minnesota R595) at 10 ng/ml
Read-out: 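Microscopy ratio of nuclear to perinuclear-ring GFP-p65 signal, scaled to the plate median; gene score is the average of two replicate robust z-scores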
Scale: p65 translocation robust z-score: higher = more nuclear NF-kappaB p65 after LPS than the plate median; nuclear/cytoplasmic p65 ratio: higher = more nuclear NF-kappaB p65
Hit rule: 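Active if robust z is above 3.3 (negative regulators) or below -1.56, the Tlr4 control median (positive regulators); activity score 50 or more; control wells not called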
Calls: active = hit (p65 shift raised or lowered); inactive = no clear change
Here is a random part of about 17,000 reagents tested. Of all reagents, 762 (4.5%) are marked active. 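Active calls include both raised and lowered p65 entry, mostly lowered; wells with fewer than 50 cells lack a z-score.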 Raw values vary from plate to plate and are shown uncorrected. Entries without a mark were called inactive. No sequences are given here.

gene symbol | PubChem SID | p65 translocation robust z-score | nuclear/cytoplasmic p65 ratio, rep 1 | nuclear/cytoplasmic p65 ratio, rep 2 | low cell count flag
Clock (clock circadian regulator) | SID315466003 | -0.08 | 1.45 | 1.37 | enough cells to score
Hmgn2 (high mobility group nucleosomal binding domain 2) | SID315467222 | -0.06 | 1.4 | 1.39 | enough cells to score
Nbr1 (NBR1, autophagy cargo receptor) | SID315468105 | -0.05 | 1.46 | 1.32 | enough cells to score
Spats1 (spermatogenesis associated, serine-rich 1) | SID315474175 | 0.02 | 1.45 | 1.21 | enough cells to score
Impdh2 (inosine monophosphate dehydrogenase 2) | SID315470229 | – | 1.51 | 1.45 | fewer than 50 cells per well; well left out of scoring
Yju2b (YJU2 splicing factor homolog B) | SID315473200 | 0.13 | 1.35 | 1.32 | enough cells to score
Ctnna3 (catenin alpha 3) | SID315477968 | 1.59 | 1.8 | 1.47 | enough cells to score
Slc1a3 | SID315469286 | -1.08 | 1.33 | 1.13 | enough cells to score
Rgs3 (regulator of G-protein signaling 3) | SID315470842 | 0.25 | 1.53 | 1.64 | enough cells to score
Oxld1 (oxidoreductase like domain containing 1) | SID315472438 | – | 1.29 | 1.39 | fewer than 50 cells per well; well left out of scoring
Musk (muscle, skeletal, receptor tyrosine kinase) | SID315468255 | -0.6 | 1.48 | 1.3 | enough cells to score
Mto1 (mitochondrial tRNA translation optimization 1) | SID315473494 | -1.58 (active) | 1.55 | 1.34 | enough cells to score
Pacsin3 (protein kinase C and casein kinase substrate in neurons 3) | SID315475708 | 0.97 | 1.55 | 1.56 | enough cells to score
Chek2 (checkpoint kinase 2) | SID315470871 | 1.01 | 1.93 | 1.45 | enough cells to score
Mrpl11 (mitochondrial ribosomal protein L11) | SID315472433 | -0.04 | 1.78 | 1.58 | enough cells to score
Nemf (nuclear export mediator factor) | SID315472313 | 1.32 | 1.61 | 1.35 | enough cells to score
Or8b56 (olfactory receptor family 8 subfamily B member 56) | SID315480457 | 3.6 (active) | 2.08 | 1.52 | enough cells to score
Adm2 (adrenomedullin 2) | SID315478295 | 1.38 | 1.87 | 1.84 | enough cells to score
Pole4 (polymerase (DNA-directed), epsilon 4 (p12 subunit)) | SID315472754 | – | 1.34 | 1.16 | fewer than 50 cells per well; well left out of scoring
Zkscan14 (zinc finger with KRAB and SCAN domains 14) | SID315472917 | -1.76 (active) | 1.17 | 1.06 | enough cells to score
Col9a3 (collagen, type IX, alpha 3) | SID315466069 | 0.73 | 1.47 | 1.57 | enough cells to score
Mrps24 (mitochondrial ribosomal protein S24) | SID315472117 | -1.3 | 1.61 | 1.37 | enough cells to score
Slc6a4 | SID315467349 | -0.74 | 1.37 | 1.46 | enough cells to score
Zfp410 (zinc finger protein 410) | SID315471007 | -0.35 | 1.44 | 1.82 | enough cells to score
F12 (coagulation factor XII (Hageman factor)) | SID315471935 | -0.35 | 1.29 | 1.44 | enough cells to score
Nme2 (NME/NM23 nucleoside diphosphate kinase 2) | SID315468191 | -1.39 | 1.37 | 1.2 | enough cells to score
Dnajb4 (DnaJ heat shock protein family (Hsp40) member B4) | SID315472789 | 0.3 | 1.47 | 1.43 | enough cells to score
Runx2 (runt related transcription factor 2) | SID315465787 | – | 1.09 | 1.15 | fewer than 50 cells per well; well left out of scoring
Or8g37 (olfactory receptor family 8 subfamily G member 37) | SID315480264 | 0.88 | 1.57 | 1.34 | enough cells to score
Lmf1 (lipase maturation factor 1) | SID315475324 | – | 2.02 | 0 | fewer than 50 cells per well; well left out of scoring
Gtf2e2 | SID315473431 | 0.7 | 1.43 | 1.55 | enough cells to score
Laptm4b (lysosomal-associated protein transmembrane 4B) | SID315476996 | 2.66 | 1.73 | 1.97 | enough cells to score
Brf2 | SID315472565 | -0.43 | 1.57 | 1.53 | enough cells to score
Cyp4f13 (cytochrome P450, family 4, subfamily f, polypeptide 13) | SID315477194 | -0.72 | 1.5 | 1.64 | enough cells to score
Or3a4 (olfactory receptor family 3 subfamily A member 4) | SID315480614 | – | 1.47 | 1.47 | fewer than 50 cells per well; well left out of scoring
Clybl (citrate lyase beta like) | SID315473853 | -0.27 | 1.57 | 1.71 | enough cells to score
Mrpl30 (mitochondrial ribosomal protein L30) | SID315476635 | -0.37 | 1.9 | 1.39 | enough cells to score
Klra22 (killer cell lectin-like receptor subfamily A, member 22) | SID315476014 | -1.76 (active) | 1.2 | 1.19 | enough cells to score
Pate4 (prostate and testis expressed 4) | SID315471710 | – | 1.3 | 1.2 | fewer than 50 cells per well; well left out of scoring
Mtus1 (mitochondrial tumor suppressor 1) | SID315476314 | -0.68 | 1.6 | 1.55 | enough cells to score
Brd3 (bromodomain containing 3) | SID315472989 | -0.64 | 1.56 | 1.47 | enough cells to score
Vkorc1 (vitamin K epoxide reductase complex, subunit 1) | SID315470647 | – | 1.65 | 1.22 | fewer than 50 cells per well; well left out of scoring
Kcne3 | SID315471795 | -0.25 | 1.41 | 1.38 | enough cells to score
Gna13 (guanine nucleotide binding protein, alpha 13) | SID315466940 | -0.88 | 1.39 | 1.44 | enough cells to score
Rex1bd (required for excision 1-B domain containing) | SID315472457 | 0.34 | 1.29 | 1.3 | enough cells to score
Or8g23 (olfactory receptor family 8 subfamily G member 23) | SID315480113 | 0.19 | 1.45 | 1.27 | enough cells to score
Piwil2 (piwi-like RNA-mediated gene silencing 2) | SID315471805 | 0.15 | 1.56 | 1.39 | enough cells to score
F7 (coagulation factor VII) | SID315466607 | 0.42 | 1.51 | 1.43 | enough cells to score
Ocm (oncomodulin) | SID315468285 | -0.18 | 1.88 | 1.34 | enough cells to score
Irf3 (interferon regulatory factor 3) | SID315471154 | -1.1 | 1.34 | 1.23 | enough cells to score
Rin2 (Ras and Rab interactor 2) | SID315474820 | -0.5 | 1.28 | 1.22 | enough cells to score
Chrnb4 (cholinergic receptor, nicotinic, beta polypeptide 4) | SID315476669 | -1.54 | 1.26 | 1.18 | enough cells to score
Ifna4 (interferon alpha 4) | SID315467389 | -2.12 (active) | 1.16 | 1.1 | enough cells to score
Eif2b1 (eukaryotic translation initiation factor 2B, subunit alpha) | SID315477590 | -0.06 | 1.48 | 1.34 | enough cells to score
Shc3 (src homology 2 domain-containing transforming protein C3) | SID315469222 | 1.71 | 1.8 | 1.8 | enough cells to score
5330416C01Rik (RIKEN cDNA 5330416C01 gene) | SID315481903 | -2.38 (active) | 1.14 | 1.06 | enough cells to score
Phldb2 (pleckstrin homology like domain, family B, member 2) | SID315477522 | 0.44 | 1.53 | 1.29 | enough cells to score
Arpc5l (actin related protein 2/3 complex, subunit 5-like) | SID315474897 | -0.41 | 1.6 | 1.39 | enough cells to score
Rpp25 (ribonuclease P/MRP 25 subunit) | SID315476340 | -1.23 | 1.17 | 1.15 | enough cells to score

Sorted by “nuclear/cytoplasmic p65 ratio, rep 2” (high to low): some entries from above.
gene symbol | PubChem SID | p65 translocation robust z-score | nuclear/cytoplasmic p65 ratio, rep 1 | nuclear/cytoplasmic p65 ratio, rep 2 | low cell count flag
Adm2 (adrenomedullin 2) | SID315478295 | 1.38 | 1.87 | 1.84 | enough cells to score
Mrpl11 (mitochondrial ribosomal protein L11) | SID315472433 | -0.04 | 1.78 | 1.58 | enough cells to score
Pacsin3 (protein kinase C and casein kinase substrate in neurons 3) | SID315475708 | 0.97 | 1.55 | 1.56 | enough cells to score
Or8b56 (olfactory receptor family 8 subfamily B member 56) | SID315480457 | 3.6 (active) | 2.08 | 1.52 | enough cells to score
Chek2 (checkpoint kinase 2) | SID315470871 | 1.01 | 1.93 | 1.45 | enough cells to score
Oxld1 (oxidoreductase like domain containing 1) | SID315472438 | – | 1.29 | 1.39 | fewer than 50 cells per well; well left out of scoring
Nemf (nuclear export mediator factor) | SID315472313 | 1.32 | 1.61 | 1.35 | enough cells to score
Mto1 (mitochondrial tRNA translation optimization 1) | SID315473494 | -1.58 (active) | 1.55 | 1.34 | enough cells to score
Musk (muscle, skeletal, receptor tyrosine kinase) | SID315468255 | -0.6 | 1.48 | 1.3 | enough cells to score
